No constants are given. Whether binding was seen depends on the method and setting. Some binding calls cover weakened binding; strength is not graded here.
Molecular target: Ring1B (mouse (endogenous in ESCs)) (UniProt Q9CQJ4)
Assay: SEC; 1 mg WT E14 ESC nuclear extract treated with RNase A and Benzonase, Superose 6 10/300 GL in BC200 buffer; every other 0.5 ml fraction TCA precipitated and immunoblotted

Chains of the proteins cited; added tags and fusions are not shown.
UniProt Q9CQJ4: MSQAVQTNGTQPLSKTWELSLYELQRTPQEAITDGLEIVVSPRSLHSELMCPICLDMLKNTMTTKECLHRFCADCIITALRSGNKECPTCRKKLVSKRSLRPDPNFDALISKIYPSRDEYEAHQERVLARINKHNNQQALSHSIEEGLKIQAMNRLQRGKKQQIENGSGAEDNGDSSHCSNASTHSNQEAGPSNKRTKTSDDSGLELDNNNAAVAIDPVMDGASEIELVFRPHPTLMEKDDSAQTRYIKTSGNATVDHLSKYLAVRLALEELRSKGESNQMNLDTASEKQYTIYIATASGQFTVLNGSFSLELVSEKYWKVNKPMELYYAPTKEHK

- binding: binds
B1: Rybp (protein, UniProt Q8CCI5 1-228)
chain: MTMGDKKSPTRPKRQAKPAADEGFWDCSVCTFRNSAEAFKCSICDVRKGTSTRKPRINSQLVAQQVAQQYATPPPPKKEKKEKVEKPDKEKPEKDKDISPSVTKKNTNKKTKPKSDILKDPPSEANSIQSANATTKTSETNHTSRPRLKNVDRSTAQQLAVTVGNVTVIITDFKEKTRSSSTSSSTVTSSAGSEQQNQSSSGSESTDKGSSRSSTPKGDMSAVNDESF
